The results in this text go back to paper PMC8593239.

Chains of the proteins cited; added tags and fusions are not shown. Lines headed by an entry give the natural chain unless they say otherwise; changes in a name come on top. Residues count along the entry.
UniProt P06756: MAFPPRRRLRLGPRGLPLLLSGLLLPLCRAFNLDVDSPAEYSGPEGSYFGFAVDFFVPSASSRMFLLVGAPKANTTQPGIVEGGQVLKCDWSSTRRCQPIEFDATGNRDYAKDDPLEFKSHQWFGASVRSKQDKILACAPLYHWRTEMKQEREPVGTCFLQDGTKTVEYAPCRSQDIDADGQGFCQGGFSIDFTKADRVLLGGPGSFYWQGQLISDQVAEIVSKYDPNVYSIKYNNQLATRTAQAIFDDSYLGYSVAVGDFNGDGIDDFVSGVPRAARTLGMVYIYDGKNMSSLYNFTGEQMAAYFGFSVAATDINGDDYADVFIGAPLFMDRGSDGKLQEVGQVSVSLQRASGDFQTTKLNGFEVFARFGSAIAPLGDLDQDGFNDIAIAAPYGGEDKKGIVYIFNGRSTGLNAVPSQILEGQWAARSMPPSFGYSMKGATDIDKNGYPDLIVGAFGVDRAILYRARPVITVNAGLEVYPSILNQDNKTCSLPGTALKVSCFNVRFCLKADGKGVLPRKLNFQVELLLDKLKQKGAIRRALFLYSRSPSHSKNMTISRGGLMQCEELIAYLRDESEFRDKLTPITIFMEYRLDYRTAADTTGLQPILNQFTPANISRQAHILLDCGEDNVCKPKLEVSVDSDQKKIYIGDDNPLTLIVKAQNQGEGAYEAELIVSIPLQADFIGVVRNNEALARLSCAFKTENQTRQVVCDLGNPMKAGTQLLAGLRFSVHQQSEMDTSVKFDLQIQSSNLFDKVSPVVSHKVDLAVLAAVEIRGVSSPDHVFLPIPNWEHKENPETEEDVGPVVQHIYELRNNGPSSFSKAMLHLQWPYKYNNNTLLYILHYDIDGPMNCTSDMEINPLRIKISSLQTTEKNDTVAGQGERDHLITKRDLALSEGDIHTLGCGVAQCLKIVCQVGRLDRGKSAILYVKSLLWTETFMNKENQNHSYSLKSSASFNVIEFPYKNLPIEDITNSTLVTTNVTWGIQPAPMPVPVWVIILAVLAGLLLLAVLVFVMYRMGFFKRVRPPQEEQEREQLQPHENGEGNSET
UniProt P05106: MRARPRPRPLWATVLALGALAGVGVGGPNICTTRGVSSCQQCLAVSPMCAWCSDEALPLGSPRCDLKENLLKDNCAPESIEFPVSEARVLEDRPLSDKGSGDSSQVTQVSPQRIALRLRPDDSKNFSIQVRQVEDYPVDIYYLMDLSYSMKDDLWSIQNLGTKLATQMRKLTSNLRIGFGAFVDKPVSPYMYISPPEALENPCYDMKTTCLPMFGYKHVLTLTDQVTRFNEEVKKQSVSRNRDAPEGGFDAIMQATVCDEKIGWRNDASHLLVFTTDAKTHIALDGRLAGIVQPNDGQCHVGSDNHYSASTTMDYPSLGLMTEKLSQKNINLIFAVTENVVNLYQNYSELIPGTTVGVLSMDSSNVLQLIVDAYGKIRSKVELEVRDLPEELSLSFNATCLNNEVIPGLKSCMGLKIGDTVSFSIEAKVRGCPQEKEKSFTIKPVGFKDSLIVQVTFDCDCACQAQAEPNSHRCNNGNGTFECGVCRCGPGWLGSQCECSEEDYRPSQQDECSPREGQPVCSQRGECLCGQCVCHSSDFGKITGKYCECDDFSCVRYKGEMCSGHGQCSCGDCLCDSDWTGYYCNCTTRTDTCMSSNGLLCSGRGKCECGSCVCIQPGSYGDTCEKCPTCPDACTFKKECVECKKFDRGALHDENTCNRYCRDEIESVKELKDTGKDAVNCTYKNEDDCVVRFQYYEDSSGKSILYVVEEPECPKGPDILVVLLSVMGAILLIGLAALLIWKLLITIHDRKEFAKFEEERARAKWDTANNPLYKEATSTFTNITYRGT
UniProt P18084: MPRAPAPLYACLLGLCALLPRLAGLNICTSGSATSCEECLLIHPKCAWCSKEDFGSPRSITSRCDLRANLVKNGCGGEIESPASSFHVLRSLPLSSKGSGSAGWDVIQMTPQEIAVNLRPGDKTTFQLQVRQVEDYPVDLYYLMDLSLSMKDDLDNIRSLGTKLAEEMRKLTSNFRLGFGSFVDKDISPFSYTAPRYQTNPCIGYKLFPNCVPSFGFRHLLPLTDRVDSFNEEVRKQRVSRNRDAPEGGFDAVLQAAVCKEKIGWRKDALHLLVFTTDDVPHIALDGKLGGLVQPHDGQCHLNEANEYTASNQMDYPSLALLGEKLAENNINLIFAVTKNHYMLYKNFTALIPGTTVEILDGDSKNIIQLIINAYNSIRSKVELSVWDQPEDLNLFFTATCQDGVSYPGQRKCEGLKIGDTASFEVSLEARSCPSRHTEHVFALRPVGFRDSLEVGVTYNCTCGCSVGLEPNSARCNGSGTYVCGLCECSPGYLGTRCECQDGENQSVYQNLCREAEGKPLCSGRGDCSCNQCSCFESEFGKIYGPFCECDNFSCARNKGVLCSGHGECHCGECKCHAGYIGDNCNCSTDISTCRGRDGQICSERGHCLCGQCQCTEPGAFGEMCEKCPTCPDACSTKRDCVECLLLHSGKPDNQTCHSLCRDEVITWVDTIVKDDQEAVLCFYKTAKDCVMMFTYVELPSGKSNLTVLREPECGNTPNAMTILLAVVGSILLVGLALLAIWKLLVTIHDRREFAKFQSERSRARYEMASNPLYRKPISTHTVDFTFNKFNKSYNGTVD
UniProt Q8WWA0, residues 19-298: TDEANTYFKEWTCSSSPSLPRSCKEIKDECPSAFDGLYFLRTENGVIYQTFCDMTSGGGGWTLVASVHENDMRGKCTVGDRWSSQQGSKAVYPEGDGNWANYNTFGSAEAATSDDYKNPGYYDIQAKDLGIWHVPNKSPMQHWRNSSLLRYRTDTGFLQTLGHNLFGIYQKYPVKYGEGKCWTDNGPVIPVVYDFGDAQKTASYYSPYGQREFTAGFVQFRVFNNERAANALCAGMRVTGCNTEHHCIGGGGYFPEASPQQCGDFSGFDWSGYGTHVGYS

Assay [1] concerns the target human integrin αvβ3 on THP1-derived macrophages (human (endogenous in THP1)) (UniProt P06756+P05106). As to the kind of experiment: flow cytometry on cells; THP1 cells induced by 100 ng/ml PMA for 48 h, pretreated with IgG isotype or neutralizing antibodies against human integrin αvβ3 or αvβ5, then incubated with Flag-tagged omentin-1; detected by PE-labeled antibody against the flag tag; n = 3; only the binder purified. (In general: Flow cytometry measures light scatter and fluorescence of single cells or particles in a stream.)

For assay [2], the target named is human integrin αvβ5 on THP1-derived macrophages (human (endogenous in THP1)) (UniProt P06756+P18084). The assay is described as above.

Results are given in words; binding and its absence hold for the method and conditions named. Some entries that bind do so weakly or less than the wild type.

Consider “flag-tagged omentin-1 (from UniProt Q8WWA0 19-298)”, for which the binding result in assay [1] and in assay [2] was “binds” in each case.
